According to PubChem BioAssay AID587 (National Center for Advancing Translational Sciences (NCATS), 2007):
The campaign covered roughly 59,000 compounds. About 35 (0.06%) were called active. Inconclusive results, whose numbers are uncertain, are shown with a selection of clear calls. Cut-off read from the data, not from the text of the source: active = max dye-equivalent concentration above about 10 nM; inconclusive = between about 1.1 nM and that limit; inactive = weaker than that.

Assay: qHTS Assay for Spectroscopic Profiling in Texas Red Spectral Region
Details: Compound fluorescence, Texas Red channel, 547/618 nm; active compounds read high
Summary of the method: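 Dye-equivalent concentrations come from scaling compound signal (ex 547, em 618 nm) to six Texas Red standard concentrations run on every plate, after 15 min room-temperature incubation in pH 8.0 Tris (100 mM).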

Question: With CC(C)C(=O)Nc1cccc(NC(=O)c2cccnc2)c1 as the compound, how does the max dye-equivalent concentration read?
Answer: inconclusive: 1.6 nM

Question: Which max dye-equivalent concentration does the source give for c1ccc(CNc2ncnc3c2ncn3C2CCCCO2)cc1 (stereo not given) here?
Answer: inconclusive: 1.9 nM

Question: With O=C(NCc1ccc(F)cc1)c1noc2c1CCCCC2 as the compound, how does the max dye-equivalent concentration read?
Answer: inconclusive: 1.2 nM

Question: With Cn1c(=O)c2cn3ncccc3c2n(C)c1=O as the compound, how does the max dye-equivalent concentration read?
Answer: inconclusive: 1.5 nM

Question: Which max dye-equivalent concentration does the source give for Cc1cc(C)n(-c2ccc(Cl)c(C(=O)Nc3ccc(-c4nnc5n4CCCCC5)cc3)n2)n1 here?
Answer: inconclusive: 2.1 nM

Question: With COCCNC(=S)c1ccc(OC)cc1 as the compound, how does the max dye-equivalent concentration read?
Answer: inactive

Question: With O=C(O)CCCC(=O)Nc1ccc(N2CCCC2)cc1 as the compound, how does the max dye-equivalent concentration read?
Answer: inconclusive: 1.5 nM

Question: With CCOc1ccc(NCc2nnc(SCC(=O)Nc3cc(C)on3)n2-c2ccccc2OC)cc1 as the compound, how does the max dye-equivalent concentration read?
Answer: inconclusive: 2.4 nM

Question: With COC(=O)[C@]1(C)CCC(c2ccc(C)cc2)=C(CC(=O)O)C1 as the compound, how does the max dye-equivalent concentration read?
Answer: inactive

Question: Which max dye-equivalent concentration does the source give for Nc1nc2ccc(S(=O)(=O)c3ccc4nc(N)sc4c3)cc2s1 here?
Answer: inconclusive: 3.2 nM

Question: Which max dye-equivalent concentration does the source give for CCCN(CCC)S(=O)(=O)c1ccc(C(=O)Nc2nnc(-c3cc(OC)cc(OC)c3)o2)cc1 here?
Answer: inconclusive: 1.1 nM

Question: Which max dye-equivalent concentration does the source give for CCN(CC)c1ccc(C=N/C(C#N)=C(\N)C#N)cc1 here?
Answer: inconclusive: 1.3 nM

Question: For COc1cc(S(=O)(=O)N2CCOCC2)ccc1NC(=O)COC(=O)C12CC3CC(CC(C3)C1)C2, which max dye-equivalent concentration is on record?
Answer: inconclusive: 1.4 nM

Question: With OC(CCCN1CCCCC1)(c1ccccc1)c1ccccc1 as the compound, how does the max dye-equivalent concentration read?
Answer: inconclusive: 1.1 nM

Question: With COc1ccccc1-c1c(C)nn2c(C)c(C(C)=O)cnc12 as the compound, how does the max dye-equivalent concentration read?
Answer: inconclusive: 1.2 nM

Question: With Nc1nc(N)[n+]([O-])c(N)c1NCO as the compound, how does the max dye-equivalent concentration read?
Answer: inconclusive: 1.2 nM

Question: For C=C[C@@]1(C)CC(=O)[C@@]2(O)[C@@]3(C)[C@H](O)CCC(C)(C)[C@@H]3[C@H](O)[C@H](OC(C)=O)[C@]2(C)O1, which max dye-equivalent concentration is on record?
Answer: inconclusive: 1.4 nM

Question: With CCOCCc1nnc(NC(=O)c2cccc(F)c2)s1 as the compound, how does the max dye-equivalent concentration read?
Answer: inconclusive: 2 nM

Question: For COCCCn1c(SCC(=O)NC2CCCC2)nnc1-c1ccco1, which max dye-equivalent concentration is on record?
Answer: inconclusive: 1.1 nM

Question: For COc1ccc(-n2c(NC(=O)c3ccco3)c(C#N)c3nc4ccccc4nc32)cc1, which max dye-equivalent concentration is on record?
Answer: inconclusive: 1.1 nM

Question: With CCOc1ccc(S(=O)(=O)Nc2nc3ccccc3nc2N2CCN(C)CC2)cc1 as the compound, how does the max dye-equivalent concentration read?
Answer: inconclusive: 1.6 nM

Question: For Cc1cc(NC(=O)CCC(=O)N(CC(=O)NC2CCCC2)c2ccc3c(c2)OCCO3)no1, which max dye-equivalent concentration is on record?
Answer: inconclusive: 1.3 nM

Question: For CSC1(SC2=NCCN2)SC2(NCCN2)S1, which max dye-equivalent concentration is on record?
Answer: inconclusive: 1.5 nM

Question: Which max dye-equivalent concentration does the source give for COc1ccccc1NC(=O)c1sc2nc(-c3ccco3)ccc2c1N here?
Answer: inactive

Question: For CC(=O)NC(Cc1ccccc1F)C(=O)NC1CCN(C(=O)c2cnccn2)CC1 (stereo not given), which max dye-equivalent concentration is on record?
Answer: inconclusive: 2.2 nM

Question: For Cc1ccc(C)c(NC(=O)C2CC(=O)N(C(C)C)C2)c1 (stereo not given), which max dye-equivalent concentration is on record?
Answer: inconclusive: 1.1 nM

Question: Which max dye-equivalent concentration does the source give for O=C(CN(Cc1ccco1)C(=O)CCC(=O)Nc1ccccn1)NCCc1ccccc1 here?
Answer: inconclusive: 1.1 nM

Question: With O=C(CN(CCc1ccccc1)C(=O)CNS(=O)(=O)c1ccc(F)cc1)NCC1CCCO1 (stereo not given) as the compound, how does the max dye-equivalent concentration read?
Answer: inconclusive: 1.4 nM

Question: Which max dye-equivalent concentration does the source give for COCCn1nnnc1C(c1cc2ccc(OC)cc2[nH]c1=O)N1CCc2ccccc2C1 (stereo not given) here?
Answer: inconclusive: 1.4 nM

Question: Which max dye-equivalent concentration does the source give for COC(=O)N1CCC2(CC1)CN(c1cccc(-c3ccccc3)c1)C2 here?
Answer: inactive

Question: For CCOC(=O)c1c(NC(=O)c2ccc(S(=O)(=O)N3CCOCC3)cc2)sc2c1CCN(C)C2, which max dye-equivalent concentration is on record?
Answer: inconclusive: 2.1 nM

Question: With COc1cc([C@@H]2Oc3cc([C@H]4Oc5cc(O)cc(O)c5C(=O)[C@H]4O)ccc3O[C@H]2CO)ccc1O as the compound, how does the max dye-equivalent concentration read?
Answer: inactive

Question: Which max dye-equivalent concentration does the source give for CCC1Oc2ccccc2N(CC(=O)Nc2ccc(OC)cc2OC)C1=O (stereo not given) here?
Answer: inconclusive: 1.9 nM

Question: With CC(=O)[C@@H]1CC[C@@H]2[C@@H]3CCC4=CC(=O)CC[C@@]4(C)[C@H]3CC[C@]21C as the compound, how does the max dye-equivalent concentration read?
Answer: inconclusive: 1.3 nM

Question: For N#Cc1c(N)sc(=S)c2c1CCCCC2, which max dye-equivalent concentration is on record?
Answer: inactive

Question: With COc1cccc(C2(O)CCN(C(=O)C3CCC3)CC2)c1 as the compound, how does the max dye-equivalent concentration read?
Answer: inconclusive: 1.3 nM

Question: With Cc1c(NC(=O)C2CCCN2S(=O)(=O)c2ccc(Cl)cc2)c(=O)n(-c2ccccc2)n1C (stereo not given) as the compound, how does the max dye-equivalent concentration read?
Answer: inconclusive: 1.6 nM

Question: With Cc1ccc(S(=O)(=O)N2CCCC2C(=O)NC2CCCCC2)cc1 (stereo not given) as the compound, how does the max dye-equivalent concentration read?
Answer: inconclusive: 1.1 nM

Question: Which max dye-equivalent concentration does the source give for O=c1c(O)c(-c2ccc(O)c(O)c2)oc2ccccc12 here?
Answer: inactive

Question: Which max dye-equivalent concentration does the source give for Cc1ccc(C)c(N(CC(=O)NCc2ccc3c(c2)OCO3)C(=O)CCC(=O)Nc2ccccn2)c1 here?
Answer: inconclusive: 1.6 nM

Question: With CC(C)n1c(NCc2nc3ccccc3n2C)nc2ccccc21 as the compound, how does the max dye-equivalent concentration read?
Answer: inconclusive: 1.4 nM

Question: With O=C(CSc1nnc(Cn2c(=O)sc3ccccc32)n1-c1ccccc1)N1CCOCC1 as the compound, how does the max dye-equivalent concentration read?
Answer: inconclusive: 1.5 nM

Question: For COCCNC(=O)Cn1nc(-c2ccccc2OC)ccc1=O, which max dye-equivalent concentration is on record?
Answer: inconclusive: 1.5 nM

Question: With CC(/C=N/n1cnnc1)=C\c1ccco1 as the compound, how does the max dye-equivalent concentration read?
Answer: inconclusive: 2.1 nM

Question: Which max dye-equivalent concentration does the source give for Cc1cccc(NC(=O)CSc2nnc(-c3ccccc3Br)o2)c1C here?
Answer: inconclusive: 1.8 nM

Question: With CCOC(=O)c1ccc(NC2c3ncccc3C(=O)N2Cc2ccc(F)cc2)cc1 (stereo not given) as the compound, how does the max dye-equivalent concentration read?
Answer: inconclusive: 1.1 nM

Question: Which max dye-equivalent concentration does the source give for c1ccc(Cn2nnc3c(N4CCC5(CC4)OCCO5)ncnc32)cc1 here?
Answer: inconclusive: 1.2 nM

Question: For COc1cccc2cc(C(C)N(CCCN3CCOCC3)C(=O)Nc3ccc(Cl)cc3)oc12 (stereo not given), which max dye-equivalent concentration is on record?
Answer: inconclusive: 1.5 nM

Question: Which max dye-equivalent concentration does the source give for CCOC(=O)N1CCN(C(=O)c2ccccc2CCc2ccccc2)CC1 here?
Answer: inconclusive: 1.8 nM

Question: Which max dye-equivalent concentration does the source give for O=C1[C@@H]2[C@@H]3C=C[C@H]([C@@H]2C(=O)N1CN1CCSCC1)[C@@H]1[C@@H]2C(=O)N(CN4CCSCC4)C(=O)[C@@H]2[C@H]31 here?
Answer: inactive

Question: With COc1ccc(S(=O)(=O)NCCCN2CCOCC2)c2ccccc12 as the compound, how does the max dye-equivalent concentration read?
Answer: inconclusive: 1.2 nM

Question: With COc1cccc(N2CCN(CC(=O)NCc3cccs3)CC2)c1 as the compound, how does the max dye-equivalent concentration read?
Answer: inconclusive: 1.8 nM

Question: With Cc1nn2c(CN(C(=O)c3ccco3)c3ccccc3)nnc2c2ccccc12 as the compound, how does the max dye-equivalent concentration read?
Answer: inconclusive: 1.2 nM

Question: With Cn1c(=NC(=O)CSCC(=O)N2CCCC2)sc2ccccc21 as the compound, how does the max dye-equivalent concentration read?
Answer: inconclusive: 1.1 nM

Question: With Cc1cc2ncn(N)c2cc1C as the compound, how does the max dye-equivalent concentration read?
Answer: inconclusive: 1.7 nM

Question: With Cc1cccn2c(=O)c3cc(C(=O)NCc4cccnc4)c(=N)n(C(C)C)c3nc12 as the compound, how does the max dye-equivalent concentration read?
Answer: inconclusive: 1.4 nM

Question: With CC(=O)c1ccccc1OCC(O)CN1CCN(C(c2ccccc2)c2ccccc2)CC1 (stereo not given) as the compound, how does the max dye-equivalent concentration read?
Answer: inconclusive: 1.1 nM

Question: For c1ccc(-n2ncc3c(NCc4ccco4)ncnc32)cc1, which max dye-equivalent concentration is on record?
Answer: inconclusive: 1.1 nM

Question: For Oc1ccccc1-c1nnc(SCCN2CCOCC2)n1Cc1ccccc1, which max dye-equivalent concentration is on record?
Answer: inconclusive: 1.7 nM

Question: With CCN1CCc2nc(N)oc2CC1 as the compound, how does the max dye-equivalent concentration read?
Answer: inconclusive: 1.2 nM

Question: Which max dye-equivalent concentration does the source give for Nn1c(Cc2cccc3ccccc23)nnc1SCC(=O)NC1CCS(=O)(=O)C1 (stereo not given) here?
Answer: inconclusive: 2 nM

Question: With Fc1ccc2nc(Nc3nc4c(s3)CCCC4)sc2c1 as the compound, how does the max dye-equivalent concentration read?
Answer: inconclusive: 2.1 nM

Question: For Oc1ccc(-c2[nH]ncc2-c2ccc(Cl)cc2)c(O)c1, which max dye-equivalent concentration is on record?
Answer: inconclusive: 2.1 nM

Question: For O=C(NCc1ccc2c(c1)OCO2)c1ccc(-n2cnnn2)cc1, which max dye-equivalent concentration is on record?
Answer: inconclusive: 2.1 nM

Question: With CNC(=O)CSc1nnc(-c2cccnc2)n1CCc1ccccc1 as the compound, how does the max dye-equivalent concentration read?
Answer: inconclusive: 1.2 nM

Question: With CCOC(=O)C1CCCN(c2nc3ccccc3nc2C(C#N)C(=O)NCc2ccccc2)C1 (stereo not given) as the compound, how does the max dye-equivalent concentration read?
Answer: inactive

Question: For COC(=O)CSc1nc2sc3c(c2c(=O)n1-c1ccccc1)CCN(C)C3, which max dye-equivalent concentration is on record?
Answer: inconclusive: 1.4 nM

Question: With CC(=NCc1ccco1)C1=C(O)c2ccccc2C1=O as the compound, how does the max dye-equivalent concentration read?
Answer: inconclusive: 1.3 nM

Question: Which max dye-equivalent concentration does the source give for CCOC(=O)c1ccc(CNC(=O)c2cc(C(C)(C)C)oc2C)o1 here?
Answer: inconclusive: 1.4 nM

Question: For COc1ccc(NC(=O)c2ccccc2Cl)cc1NC(=O)CN1CCOCC1, which max dye-equivalent concentration is on record?
Answer: inconclusive: 1.2 nM

Question: With CCOC(=O)c1[nH]c2ccc(C)cc2c1N=C(C)N(C)C as the compound, how does the max dye-equivalent concentration read?
Answer: inactive

Question: For CC(C)CCn1cnc2c(c1=O)c1nc3ccccc3nc1n2Cc1ccc2c(c1)OCO2, which max dye-equivalent concentration is on record?
Answer: inconclusive: 1.5 nM

Question: With COc1ccc(N(CC(=O)NC2CCCC2)C(=O)c2ccc(N3CCCCC3)nc2)cc1 as the compound, how does the max dye-equivalent concentration read?
Answer: inactive

Question: For C[C@H](N[C@@H](C)COc1ccccc1)[C@H](O)c1ccc(O)cc1, which max dye-equivalent concentration is on record?
Answer: inactive

Question: For Cc1onc(-c2c(Cl)cccc2Cl)c1C(=O)Nn1cnnc1, which max dye-equivalent concentration is on record?
Answer: inconclusive: 2.5 nM

Question: Which max dye-equivalent concentration does the source give for CC(=O)Nc1ccc(N/C=C/C(=O)c2ccco2)cc1 here?
Answer: inconclusive: 1.2 nM

Question: For COc1ccc(OC)c(S(=O)(=O)N(C)CC(=O)Nc2ccc3c(c2)OCCO3)c1, which max dye-equivalent concentration is on record?
Answer: inconclusive: 1.2 nM

Question: For COc1ccc(OC)c(-c2[nH]nc3c2C(c2ccco2)C(C#N)=C(N)O3)c1 (stereo not given), which max dye-equivalent concentration is on record?
Answer: inconclusive: 1.2 nM

Question: For CCOC(=O)c1sc(NC(=O)CSc2ncn(-c3ccccc3)n2)nc1C, which max dye-equivalent concentration is on record?
Answer: inconclusive: 2.4 nM

Question: Which max dye-equivalent concentration does the source give for COC(=O)c1ccccc1NC(=O)Nc1cnccn1 here?
Answer: inconclusive: 2.8 nM

Question: For COc1cc(NC(=O)N2CCOCC2)cc(OC)c1, which max dye-equivalent concentration is on record?
Answer: inconclusive: 1.1 nM

Question: With COc1ccc(C2CC(=O)N3C(=C2C#N)SCC3(O)c2ccccc2)cc1 (stereo not given) as the compound, how does the max dye-equivalent concentration read?
Answer: inconclusive: 1.5 nM

Question: With CCN1CCN(C(c2ccc(F)cc2)c2nnnn2Cc2cccs2)CC1 (stereo not given) as the compound, how does the max dye-equivalent concentration read?
Answer: inconclusive: 1.4 nM

Question: With O=S(=O)(Nc1nc2ccccc2[nH]1)c1ccc(Cl)cc1 as the compound, how does the max dye-equivalent concentration read?
Answer: inactive

Question: For Cc1c(S(=O)(=O)O)ccc(N=Nc2c(O)c(C(=O)O)cc3ccccc23)c1Cl, which max dye-equivalent concentration is on record?
Answer: inactive
